{
  "source": "patent EP2963052A2",
  "about": "(Zamerton Holdings Limited, priority 2013, dated 2016)",
  "assay": "general procedure: solution-phase peptide synthesis; p-nitrophenyl (ONP) active esters",
  "details": "late stage modification step",
  "note": "Some peptides are written in HELM: one residue between dots, names in brackets for other building blocks, links after the first $.",
  "data": [
    {"substance": "Ala-Asp-Glu-Arg", "values": [
      {"measurement": "step yield", "value": 82, "unit": "%"}
    ]},
    {"substance": "PEPTIDE1{A.D.E.R}$$$$V2.0", "values": [
      {"measurement": "final HPLC purity", "setting": "HPLC", "value": "exceeding 95%"}
    ]}
  ]
}
